# Laboratory results as given in the supplement of paper PMC12819154, “High-throughput peptide-centric local stability assay extends protein–ligand identification to membrane proteins, tissues and bacteria” (Nature Structural & Molecular Biology, 2025).
# By UniProt entry, the sequences of proteins in these tests, tags left out. Where a name states a change or a piece, a line headed by the entry shows the natural chain unless it says otherwise.
# UniProt Q8N6T7, whole entry: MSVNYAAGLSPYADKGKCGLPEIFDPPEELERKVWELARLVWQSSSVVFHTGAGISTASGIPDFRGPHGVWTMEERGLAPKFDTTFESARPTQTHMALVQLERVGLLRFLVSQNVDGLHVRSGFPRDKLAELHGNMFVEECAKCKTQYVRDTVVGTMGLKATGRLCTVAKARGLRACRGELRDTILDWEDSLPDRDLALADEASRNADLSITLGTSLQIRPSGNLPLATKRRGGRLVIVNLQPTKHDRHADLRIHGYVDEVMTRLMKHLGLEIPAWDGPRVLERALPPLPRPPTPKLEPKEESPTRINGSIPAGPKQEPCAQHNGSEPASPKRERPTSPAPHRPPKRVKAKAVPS
# UniProt Q8TAV0: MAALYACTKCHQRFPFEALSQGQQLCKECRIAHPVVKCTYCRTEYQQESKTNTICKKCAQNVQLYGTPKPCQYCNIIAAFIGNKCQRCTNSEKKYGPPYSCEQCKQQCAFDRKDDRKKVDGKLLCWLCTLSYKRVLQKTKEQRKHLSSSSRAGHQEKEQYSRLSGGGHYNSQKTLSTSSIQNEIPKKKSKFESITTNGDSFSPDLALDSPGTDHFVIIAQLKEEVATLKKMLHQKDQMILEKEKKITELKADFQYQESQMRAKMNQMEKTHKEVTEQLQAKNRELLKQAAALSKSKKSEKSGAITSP
# UniProt Q8N9B5, whole entry: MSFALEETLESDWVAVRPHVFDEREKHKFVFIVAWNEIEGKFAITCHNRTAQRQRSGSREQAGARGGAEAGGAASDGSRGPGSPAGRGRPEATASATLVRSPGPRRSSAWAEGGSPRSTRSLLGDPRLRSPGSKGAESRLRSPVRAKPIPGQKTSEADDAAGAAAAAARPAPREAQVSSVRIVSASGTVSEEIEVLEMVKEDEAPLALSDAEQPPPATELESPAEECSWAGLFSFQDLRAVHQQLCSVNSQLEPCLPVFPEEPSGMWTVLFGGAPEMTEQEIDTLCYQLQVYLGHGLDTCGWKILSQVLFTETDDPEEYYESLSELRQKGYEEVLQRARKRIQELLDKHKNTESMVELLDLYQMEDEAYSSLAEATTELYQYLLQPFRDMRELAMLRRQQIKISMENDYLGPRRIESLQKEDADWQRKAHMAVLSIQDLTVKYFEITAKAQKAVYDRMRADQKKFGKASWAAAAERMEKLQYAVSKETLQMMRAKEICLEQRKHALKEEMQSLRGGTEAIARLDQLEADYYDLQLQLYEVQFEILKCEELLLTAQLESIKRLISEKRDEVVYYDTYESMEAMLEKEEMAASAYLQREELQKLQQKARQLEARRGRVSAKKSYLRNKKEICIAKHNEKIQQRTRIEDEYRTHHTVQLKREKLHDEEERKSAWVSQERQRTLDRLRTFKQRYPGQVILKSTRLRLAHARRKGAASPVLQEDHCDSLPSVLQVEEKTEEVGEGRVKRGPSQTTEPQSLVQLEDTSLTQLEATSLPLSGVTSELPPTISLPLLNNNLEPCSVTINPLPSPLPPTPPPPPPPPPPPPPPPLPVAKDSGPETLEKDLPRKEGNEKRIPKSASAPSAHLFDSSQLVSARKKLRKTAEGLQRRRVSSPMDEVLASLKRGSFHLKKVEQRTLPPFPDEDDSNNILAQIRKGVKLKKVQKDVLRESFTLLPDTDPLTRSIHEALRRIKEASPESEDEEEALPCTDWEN
# UniProt Q8N6R0: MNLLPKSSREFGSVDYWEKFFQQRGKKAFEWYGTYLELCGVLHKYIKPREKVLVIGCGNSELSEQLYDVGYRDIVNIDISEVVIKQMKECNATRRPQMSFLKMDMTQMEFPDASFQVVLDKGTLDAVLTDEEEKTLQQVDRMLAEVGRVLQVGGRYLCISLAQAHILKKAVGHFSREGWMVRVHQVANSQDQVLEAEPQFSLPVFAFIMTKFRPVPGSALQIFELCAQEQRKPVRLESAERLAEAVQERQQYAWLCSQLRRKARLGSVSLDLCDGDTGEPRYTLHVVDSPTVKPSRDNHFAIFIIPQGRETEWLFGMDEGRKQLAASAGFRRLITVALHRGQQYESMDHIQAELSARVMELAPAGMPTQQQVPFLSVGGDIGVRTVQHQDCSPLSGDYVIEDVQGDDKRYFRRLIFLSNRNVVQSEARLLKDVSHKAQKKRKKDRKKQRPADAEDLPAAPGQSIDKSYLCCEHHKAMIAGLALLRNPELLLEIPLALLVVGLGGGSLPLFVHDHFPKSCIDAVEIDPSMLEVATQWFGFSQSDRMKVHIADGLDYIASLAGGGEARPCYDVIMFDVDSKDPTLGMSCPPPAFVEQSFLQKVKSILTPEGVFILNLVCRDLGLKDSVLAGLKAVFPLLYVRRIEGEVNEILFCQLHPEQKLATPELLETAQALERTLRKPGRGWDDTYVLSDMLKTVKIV
# UniProt Q8N999, whole entry: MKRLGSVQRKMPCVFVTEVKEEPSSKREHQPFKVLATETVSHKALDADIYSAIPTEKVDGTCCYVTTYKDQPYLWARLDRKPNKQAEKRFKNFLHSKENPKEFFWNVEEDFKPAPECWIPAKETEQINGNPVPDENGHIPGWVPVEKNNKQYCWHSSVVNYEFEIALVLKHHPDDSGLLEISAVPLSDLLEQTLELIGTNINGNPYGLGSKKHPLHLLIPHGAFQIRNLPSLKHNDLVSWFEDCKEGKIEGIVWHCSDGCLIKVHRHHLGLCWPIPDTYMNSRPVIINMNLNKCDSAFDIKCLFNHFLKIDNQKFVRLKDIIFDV
# UniProt Q8N8J0, whole entry: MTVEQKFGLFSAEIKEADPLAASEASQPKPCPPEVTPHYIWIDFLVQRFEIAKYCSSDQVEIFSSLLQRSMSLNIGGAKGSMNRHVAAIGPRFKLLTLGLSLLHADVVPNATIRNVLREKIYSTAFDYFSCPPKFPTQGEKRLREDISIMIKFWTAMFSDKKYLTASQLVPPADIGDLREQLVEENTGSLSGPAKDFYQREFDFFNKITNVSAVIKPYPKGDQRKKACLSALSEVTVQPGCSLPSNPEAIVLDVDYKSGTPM
# UniProt Q8NHU6: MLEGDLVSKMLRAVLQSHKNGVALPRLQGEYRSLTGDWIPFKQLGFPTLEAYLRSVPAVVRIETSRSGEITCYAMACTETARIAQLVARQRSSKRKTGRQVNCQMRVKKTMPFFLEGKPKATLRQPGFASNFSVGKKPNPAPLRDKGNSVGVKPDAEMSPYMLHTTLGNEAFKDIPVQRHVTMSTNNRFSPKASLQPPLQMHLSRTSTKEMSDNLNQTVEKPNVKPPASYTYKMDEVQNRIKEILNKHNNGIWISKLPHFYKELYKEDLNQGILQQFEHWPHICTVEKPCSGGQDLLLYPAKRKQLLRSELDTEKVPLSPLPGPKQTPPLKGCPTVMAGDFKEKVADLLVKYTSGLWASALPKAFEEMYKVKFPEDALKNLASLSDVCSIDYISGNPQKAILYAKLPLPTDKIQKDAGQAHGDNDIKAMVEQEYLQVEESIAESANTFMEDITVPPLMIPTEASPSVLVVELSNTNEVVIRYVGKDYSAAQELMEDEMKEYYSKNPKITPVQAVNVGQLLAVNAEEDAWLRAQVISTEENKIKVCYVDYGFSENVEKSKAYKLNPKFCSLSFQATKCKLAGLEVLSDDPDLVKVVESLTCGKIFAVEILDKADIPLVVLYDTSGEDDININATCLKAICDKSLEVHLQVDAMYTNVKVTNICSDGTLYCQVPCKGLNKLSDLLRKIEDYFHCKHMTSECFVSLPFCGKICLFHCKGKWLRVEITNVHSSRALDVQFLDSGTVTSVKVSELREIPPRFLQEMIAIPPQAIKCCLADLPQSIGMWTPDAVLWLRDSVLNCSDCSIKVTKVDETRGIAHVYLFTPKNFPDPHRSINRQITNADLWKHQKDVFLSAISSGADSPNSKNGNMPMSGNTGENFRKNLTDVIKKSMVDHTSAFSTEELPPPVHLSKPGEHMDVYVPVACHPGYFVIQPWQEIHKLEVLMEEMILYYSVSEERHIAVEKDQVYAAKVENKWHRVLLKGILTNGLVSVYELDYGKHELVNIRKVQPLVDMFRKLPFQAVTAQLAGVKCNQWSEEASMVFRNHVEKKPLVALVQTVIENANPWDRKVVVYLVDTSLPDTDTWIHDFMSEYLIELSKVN
# UniProt Q8NFV4: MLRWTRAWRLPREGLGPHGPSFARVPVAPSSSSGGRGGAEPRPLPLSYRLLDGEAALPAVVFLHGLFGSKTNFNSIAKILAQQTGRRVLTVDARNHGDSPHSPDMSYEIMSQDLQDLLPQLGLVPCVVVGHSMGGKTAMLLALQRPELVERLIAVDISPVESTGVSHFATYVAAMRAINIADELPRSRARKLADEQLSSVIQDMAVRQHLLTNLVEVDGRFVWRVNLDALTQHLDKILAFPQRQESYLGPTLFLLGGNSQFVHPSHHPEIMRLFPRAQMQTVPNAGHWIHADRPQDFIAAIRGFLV
# UniProt Q8NC51: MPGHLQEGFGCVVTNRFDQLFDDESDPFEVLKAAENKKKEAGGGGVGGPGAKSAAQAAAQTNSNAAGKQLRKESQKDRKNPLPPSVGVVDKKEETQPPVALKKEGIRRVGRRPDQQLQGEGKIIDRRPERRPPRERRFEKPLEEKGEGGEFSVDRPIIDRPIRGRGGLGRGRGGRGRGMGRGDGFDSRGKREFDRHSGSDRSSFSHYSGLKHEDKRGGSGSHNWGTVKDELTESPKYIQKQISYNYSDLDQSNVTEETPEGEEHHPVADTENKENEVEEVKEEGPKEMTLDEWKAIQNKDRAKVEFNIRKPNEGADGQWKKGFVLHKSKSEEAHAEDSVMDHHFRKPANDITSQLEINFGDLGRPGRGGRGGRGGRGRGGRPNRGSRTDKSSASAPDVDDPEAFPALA
# UniProt Q8NC44: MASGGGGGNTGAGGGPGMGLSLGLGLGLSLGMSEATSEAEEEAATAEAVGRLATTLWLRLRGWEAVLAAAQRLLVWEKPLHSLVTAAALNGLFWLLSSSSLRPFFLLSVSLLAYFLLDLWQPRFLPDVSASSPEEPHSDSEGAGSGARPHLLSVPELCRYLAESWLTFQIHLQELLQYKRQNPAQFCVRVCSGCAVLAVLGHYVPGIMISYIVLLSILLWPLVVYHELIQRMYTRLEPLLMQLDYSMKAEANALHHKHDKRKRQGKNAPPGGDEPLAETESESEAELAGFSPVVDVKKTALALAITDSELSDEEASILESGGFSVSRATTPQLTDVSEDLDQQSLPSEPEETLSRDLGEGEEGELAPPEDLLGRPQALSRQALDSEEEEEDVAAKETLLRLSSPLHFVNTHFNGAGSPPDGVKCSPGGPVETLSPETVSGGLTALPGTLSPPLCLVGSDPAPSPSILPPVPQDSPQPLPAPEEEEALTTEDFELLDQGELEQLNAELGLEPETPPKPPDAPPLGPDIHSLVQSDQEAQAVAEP
# UniProt Q8NEM7: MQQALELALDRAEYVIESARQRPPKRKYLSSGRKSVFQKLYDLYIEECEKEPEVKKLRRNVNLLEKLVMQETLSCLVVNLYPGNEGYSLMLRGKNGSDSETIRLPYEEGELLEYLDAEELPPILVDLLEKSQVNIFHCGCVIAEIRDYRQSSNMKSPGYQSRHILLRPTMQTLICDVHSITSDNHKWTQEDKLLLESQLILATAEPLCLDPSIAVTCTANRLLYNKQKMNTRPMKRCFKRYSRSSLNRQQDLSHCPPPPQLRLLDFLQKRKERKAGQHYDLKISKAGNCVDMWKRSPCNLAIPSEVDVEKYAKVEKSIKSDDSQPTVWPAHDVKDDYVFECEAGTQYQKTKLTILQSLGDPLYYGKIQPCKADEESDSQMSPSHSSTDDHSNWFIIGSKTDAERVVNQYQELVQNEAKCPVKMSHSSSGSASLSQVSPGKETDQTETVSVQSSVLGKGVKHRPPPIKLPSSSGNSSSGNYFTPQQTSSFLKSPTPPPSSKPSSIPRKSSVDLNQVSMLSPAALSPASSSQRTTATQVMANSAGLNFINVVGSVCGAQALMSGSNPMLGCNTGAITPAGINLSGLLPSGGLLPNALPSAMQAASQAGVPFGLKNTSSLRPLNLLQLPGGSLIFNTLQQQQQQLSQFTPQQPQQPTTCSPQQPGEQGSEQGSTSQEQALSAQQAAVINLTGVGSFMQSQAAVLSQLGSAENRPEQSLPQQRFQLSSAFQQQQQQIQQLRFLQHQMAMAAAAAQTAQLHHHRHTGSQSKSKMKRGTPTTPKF
# UniProt Q8N680: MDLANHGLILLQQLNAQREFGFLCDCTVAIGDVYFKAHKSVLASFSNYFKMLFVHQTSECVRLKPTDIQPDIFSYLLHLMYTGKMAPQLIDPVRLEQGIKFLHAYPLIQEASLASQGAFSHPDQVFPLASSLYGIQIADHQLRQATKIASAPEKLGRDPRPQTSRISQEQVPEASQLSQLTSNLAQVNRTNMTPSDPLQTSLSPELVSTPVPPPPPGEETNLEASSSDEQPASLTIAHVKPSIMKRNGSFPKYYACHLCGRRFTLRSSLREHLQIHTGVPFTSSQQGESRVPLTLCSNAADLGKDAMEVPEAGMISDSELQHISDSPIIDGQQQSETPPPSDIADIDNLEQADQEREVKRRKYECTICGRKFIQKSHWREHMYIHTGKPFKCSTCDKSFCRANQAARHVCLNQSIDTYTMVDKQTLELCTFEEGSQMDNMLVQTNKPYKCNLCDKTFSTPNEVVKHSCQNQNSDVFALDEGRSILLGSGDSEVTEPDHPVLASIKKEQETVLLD
# Some of the results follow. Small differences around the control level are noise.
# Compound: CN[C@@H]1C[C@H]2O[C@@](C)([C@@H]1OC)n1c3ccccc3c3c4c(c5c6ccccc6n2c5c31)C(=O)NC4 [staurosporine]
# Assay: log2 fold change of tryptic peptide abundance, ligand vs vehicle (limited proteolysis) (log2 ratio); higher = more trypsin-susceptible (destabilized)
# Conditions: ligand concentration: 20 uM; sample: K562 cleared lysate; digestion: 4 min, 22 C (HT-PELSA RT4min, Orbitrap Astral)
row,Target,log2 fold change
1,"SIRT6 (peptide sequence: GPHGVWTMEER, peptide start residue: 66) (UniProt Q8N6T7)",0.554
2,"RNF10 (peptide sequence: VALEQQLAEEK, peptide start residue: 350) (UniProt Q8N5U6)",0.477
3,"FAM76A (peptide sequence: AGHQEKEQYSR, peptide start residue: 152) (UniProt Q8TAV0)",-0.973
4,"JMY (peptide sequence: KHALKEEMQSLR, peptide start residue: 503) (UniProt Q8N9B5)",0.49
5,"UniProt Q8N6R0 (peptide sequence: QRPADAEDLPAAPGQSIDK, peptide start residue: 448)",0.392
6,"C12orf29 (peptide sequence: MPCVFVTEVK, peptide start residue: 11) (UniProt Q8N999)",-0.25
7,"UniProt Q8N7K0 (peptide sequence: DVMQETFR, peptide start residue: 40)",-0.103
8,"WDTC1 (peptide sequence: ILITGAADSK, peptide start residue: 106) (UniProt Q8N5D0)",0.292
9,"ZC3H8 (peptide sequence: EMANAAQPEESTKK, peptide start residue: 102) (UniProt Q8N5P1)",-0.188
10,"TAB3 (peptide sequence: EVDLLQSR, peptide start residue: 594) (UniProt Q8N5C8)",-0.193
11,"D2HGDH (peptide sequence: DFIMPLDLGAK, peptide start residue: 185) (UniProt Q8N465)",-0.249
12,"APPL2 (peptide sequence: ANFELTSVTQFAAHQENKR, peptide start residue: 556) (UniProt Q8NEU8)",-0.403
13,"ENGASE (peptide sequence: MEAAAVTVTR, peptide start residue: 1) (UniProt Q8NFI3)",-0.0599
14,"MINDY1 (peptide sequence: EGELSVFFR, peptide start residue: 308) (UniProt Q8N5J2)",-0.202
15,"UniProt Q8N8J0 (peptide sequence: EFDFFNK, peptide start residue: 1734)",-0.645
16,"TMEM102 (peptide sequence: AAVESPVPKPSEAR, peptide start residue: 242) (UniProt Q8N9M5)",0.244
17,"ABHD4 (peptide sequence: ILQCLQNK, peptide start residue: 35) (UniProt Q8TB40)",-0.158
18,"INO80E (peptide sequence: MAVGPPDCPVGGPLTFPGR, peptide start residue: 172) (UniProt Q8NBZ0)",-0.412
19,"THOC2 (peptide sequence: EKTPATTPEAR, peptide start residue: 1283) (UniProt Q8NI27)",0.195

# Reprinted at random: 2 entries already listed.
row,Target,log2 fold change
10,"TAB3 (peptide sequence: EVDLLQSR, peptide start residue: 594) (UniProt Q8N5C8)",-0.193
11,"D2HGDH (peptide sequence: DFIMPLDLGAK, peptide start residue: 185) (UniProt Q8N465)",-0.249

# Continued:

row,Target,log2 fold change
1,"AKR7L (peptide sequence: SQLETSLKR, peptide start residue: 121) (UniProt Q8NHP1)",0.26
2,"CRACR2B (peptide sequence: TQLEGAQEQIR, peptide start residue: 293) (UniProt Q8N4Y2)",0.399
3,"PHC3 (peptide sequence: EDHLMSAMNIK, peptide start residue: 831) (UniProt Q8NDX5)",0.11
4,"TDRD7 (peptide sequence: TMPFFLEGKPK, peptide start residue: 110) (UniProt Q8NHU6)",-0.191
5,"ABHD11 (peptide sequence: AINIADELPR, peptide start residue: 186) (UniProt Q8NFV4)",-0.0858
6,"ABCF1 (peptide sequence: RYGLVGPNGK, peptide start residue: 331) (UniProt Q8NE71)",0.525
7,"SHKBP1 (peptide sequence: GGGSFVERCQELVR, peptide start residue: 659) (UniProt Q8TBC3)",-0.137
8,"SERBP1 (peptide sequence: EAGGGGVGGPGAK, peptide start residue: 40) (UniProt Q8NC51)",-0.13
9,"TNIP2 (peptide sequence: VASLLHQVSWR, peptide start residue: 331) (UniProt Q8NFZ5)",0.38
10,"UniProt Q8NC44 (peptide sequence: AEANALHHK, peptide start residue: 249)",0.0913
11,"UniProt Q8N7N1 (peptide sequence: SFPWQSLEAK, peptide start residue: 28)",-0.241
12,"ZFP62 (peptide sequence: SFNYTSLLSQHR, peptide start residue: 625) (UniProt Q8NB50)",-0.315
13,"RNF169 (peptide sequence: LSDSENEEPSR, peptide start residue: 246) (UniProt Q8NCN4)",0.774
14,"CEP120 (peptide sequence: DGPHGSVLEEGLDDYLTR, peptide start residue: 930) (UniProt Q8N960)",-0.696
15,"SUPT20H (peptide sequence: SPTPPPSSKPSSIPR, peptide start residue: 492) (UniProt Q8NEM7)",-0.275
16,"UniProt Q8NE22 (peptide sequence: FVPWIALNLSHNPR, peptide start residue: 20)",0.527
17,"IPMK (peptide sequence: VENLEQDNGWK, peptide start residue: 337) (UniProt Q8NFU5)",-0.357
18,"ZBTB2 (peptide sequence: LGRDPRPQTSR, peptide start residue: 155) (UniProt Q8N680)",0.406
